The text below walks through data of paper PMC5706974.

These are yes or no findings as the source states them, for the method shown. In cells and extracts the contact can be indirect. Some results given as binding are weak or reduced against the parent protein; the word gives no strength.

In this assay the target is T1, platelet collagen receptor GPVI (human (endogenous in platelets)), Q9HCN6.
T1 chain: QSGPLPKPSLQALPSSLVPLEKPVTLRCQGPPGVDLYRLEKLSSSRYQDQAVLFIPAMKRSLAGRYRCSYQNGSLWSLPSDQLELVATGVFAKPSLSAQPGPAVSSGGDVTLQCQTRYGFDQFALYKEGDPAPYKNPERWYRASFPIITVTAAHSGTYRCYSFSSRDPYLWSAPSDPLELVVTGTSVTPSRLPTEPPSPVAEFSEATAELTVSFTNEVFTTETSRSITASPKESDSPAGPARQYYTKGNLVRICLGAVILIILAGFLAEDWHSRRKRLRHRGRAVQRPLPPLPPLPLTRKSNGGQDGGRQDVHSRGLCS
Briefly: co-IP; 1 x 10^9 washed human platelets lysed in 1% Brij97 lysis buffer, pre-cleared; immunoprecipitation with anti-human GPVI (HY101) or isotype control (MOPC-21) on protein G sepharose, 90 minutes at 4°C; western blot for Tspan9 and GPVI. Conditions: remark: other sources report otherwise. Background: Immunoblotting shows a protein as a band on a membrane.

B1: tetraspanin Tspan9, O75954 1-239 (protein)
chain: MARGCLCCLKYMMFLFNLIFWLCGCGLLGVGIWLSVSQGNFATFSPSFPSLSAANLVIAIGTIVMVTGFLGCLGAIKENKCLLLSFFIVLLVILLAELILLILFFVYMDKVNENAKKDLKEGLLLYHTENNVGLKNAWNIIQAEMRCCGVTDYTDWYPVLGENTVPDRCCMENSQGCGRNATTPLWRTGCYEKVKMWFDDNKHVLGTVGMCILIMQILGMAFSMTLFQHIHRTGKKYDA
With B1, the binding entry is “binds”.
